Measurements taken from US7897588B2, “Agents and methods for enhancing bone formation” (The Regents of the University of California, priority 2003, dated 2011).
Some results were stated once for a whole list of compounds, not compound by compound.

Tested on: M2 cells
Assay: Toxicity of COX inhibitors in M2 cell cultures
Assay type: cell-based, mouse

Row | Compound | non-toxic doses
1 | CC(C)Cc1ccc(C(C)C(=O)O)cc1 (centres unmarked) [Ibuprofen] | 1 to 10 µM
2 | CC(C(=O)O)c1ccc(-c2ccccc2)c(F)c1 (centres unmarked) [Fluriprofin] | 1 to 10 µM
